Our source for the Inhibition values is ChEMBL document CHEMBL4513149, “CO-ADD screening of MMV (CH) - MMV compounds” (2021).

The term Inhibition denotes the change of the read-out against control, counted positive when it falls.

Some of the results follow. Potency and affinity values are given separately.

In the experiment the test system is Pseudomonas aeruginosa. To be noted: Concentration 20 uM; ASSAY_TEST Inhibition of Bacterial Growth; detection method Absorption (OD600); MEDIA CAMHB; plate type 384well; NBS; CORNING #3640; time 18 hr.
With `CCN(CC)C(=O)N1CCN(C)CC1` [DIETHYLCARBAMAZINE], the Inhibition is on record as 13.01%. In the case of `FC(F)(F)c1nnc2ccc(Cl)nn12`, the Inhibition was 11.49%. Regarding `COc1ccc(Cl)cc1NC(=O)CN(C)C(=O)c1cnn(-c2ccccc2)n1`, the Inhibition is listed as 2.45%. Turning to `FC(F)(F)c1cccc(-c2nc3c(NCc4ccncc4)nccc3[nH]2)c1`, the Inhibition stood at 8.07%. Consider `CNC(=O)c1cc(S(=O)(=O)N2CCN(c3ccccn3)CC2)cs1`, for which the Inhibition is on record as 3.66%. In the case of `O=C1Nc2ccc(Br)cc2C12NCCc1c2[nH]c2ccccc12` (centres undefined) it was 10.57%; in that of `CN1CCN(S(=O)(=O)c2ccc(-c3ccc4c(Nc5ccc6nn[nH]c6c5)ccnc4c3)cc2)CC1`, 1.3%. `CCc1cc(=O)n(C)c(SC(C)C(=O)Nc2ccc(F)cc2)n1` (centres undefined): the Inhibition came to 9.39%. On to `Cc1ccc(NC(=O)CC2COc3ccccc3O2)cc1Cl` (centres undefined), for which the Inhibition turned out to be 10.55%.

As to `COc1ccc(S(=O)(=O)Nc2ccc(CN3CCN(C(=O)c4cccc(C#N)c4)CC3)cc2)cc1`, the Inhibition was -4.07%. Regarding `COc1ccccc1OCCCCn1c(C2CC2)nc2ccccc21`, the Inhibition was found to be 10.96%.

With `CC(C(=O)N1CCCC1)N1CCN(S(=O)(=O)c2ccc(C(C)(C)C)cc2)CC1` (centres undefined), the Inhibition was 0.15%. With `CC(Oc1ccccc1)C(=O)Nc1nc(-c2ccccn2)cs1` (centres undefined), the Inhibition is recorded as -9.98%. As to `O=C(c1[nH]nc2c1CCCC2)N1CCN(Cc2ccc3c(c2)OCO3)CC1`, the Inhibition amounted to 8.14%. In the case of `COc1cc(C(F)(F)F)nc2ccc(C)c(N)c12` it was 7.92%; in that of `Cc1cc(C)c2cc(C(=O)NC3CCCCCCC3)[nH]c2c1`, 11.76%. In the case of `Cc1ccc2[nH]c(C3CCCNC3)c(-c3ccncc3)c2c1.Cl.Cl` (centres undefined) it was 3.32%. Turning to `CCCCc1ccc(C(=O)Nc2nccc3ccccc23)nc1`, the Inhibition was 4.88%. Turning to `CC(=O)Nc1ccc(-c2noc(CC3CCCN(Cc4cccc(F)c4C)C3)n2)cc1` (centres undefined), the Inhibition was 5.48%. For `Nc1ncc(-c2ccc(C(F)(F)F)nc2)cc1-c1ccc(C(F)(F)F)nc1` the value was 5.43%; for `Cc1cnc(N2CCN[C@@H](Cc3ccccc3)C2)nc1Oc1ccc(-n2ccnc2)cc1.Cl`, 2.78%; for `CCCCN(CCCC)c1c(C#N)cc(S(=O)(=O)Nc2ccccc2)cc1C#N`, -2.72%. On to `CCCNC(=O)N1CCC2(CC1)CC(=O)c1cc(C)ccc1O2`, for which the Inhibition is 12.88%. As for `Brc1c(-c2ccc3c(c2)OCO3)nc2ncccn12`, the Inhibition was 7.52%. As to `Cc1noc(C)c1C(=O)N1CCCC(c2[nH]c3c(C)cccc3c2-c2ccncc2)C1` (centres undefined), the Inhibition was 11.35%. Regarding `O=[N+]([O-])c1cn2c(n1)OC[C@@H](OCc1ccc(OC(F)(F)F)cc1)C2` [PRETOMANID], the Inhibition is 16.92%.

Consider `Cc1ccc(S(=O)(=O)Nc2ccc(CN3CCN(C(=O)c4cccc(C#N)c4)CC3)cc2)cc1`, for which the Inhibition amounted to 3.37%. Take `CNc1nnc(Sc2cnn(-c3ccccc3)c(=O)c2Cl)s1`: the Inhibition was found to be 5.85%.

In the case of `COC(=O)c1ccc(F)cc1NS(=O)(=O)c1cccc(-c2cnn(Cc3ccccc3)c2)c1`, the Inhibition was 21.29%.

Regarding `Cc1cc(Cl)c(S(=O)(=O)N2CCCC2)cc1OCC(=O)NC1CCCCC1`, the Inhibition was -0.88%. As to `O=C(NC1CC1)c1ccc(CSCc2ccccc2Cl)o1`, the Inhibition is 0.7%.

Consider `COc1ccc(-c2cnc3ccc(N4CCCC4)nn23)cc1OC`, for which the Inhibition is given as 11.73%. In the case of `CCC(C)NC(=O)c1ccc(NC(=O)C2(c3ccccc3)CCCC2)cc1` (centres undefined), the Inhibition stood at 3.97%.

In the case of `CCC(=O)Nc1ccccc1C(=O)Nc1ccccn1`, the Inhibition was found to be 8.42%. For `CC1CCCCN1C(=O)NCCc1coc(-c2ccc(F)cc2)n1` (centres undefined), the Inhibition is recorded as 11.85%. As for `CC1COC2(CCN(c3nc(=O)c4cc(C(F)(F)F)cc([N+](=O)[O-])c4s3)CC2)O1` (centres undefined), the Inhibition was found to be 8.72%.

For the compound `Cc1nnc(NC(=O)c2cn(-c3ccccc3)nc2-c2ccccc2C)o1`, the Inhibition stood at 16.6%.

`Cc1ccccc1C(=O)N1N=C(Nc2ccccc2)SC1(C)C`: the Inhibition came to 11.14%.

For `CC[C@H](CO)NCCN[C@H](CC)CO.Cl.Cl`, the Inhibition came to 8.76%. For `CNc1snc(C)c1C(=O)NCCOc1ccc(OC)cc1` the value was 11.64%; for `CC(C)NCC(=O)Nc1cccc(C(=O)Nc2cccc(C(F)(F)F)c2)c1`, 0.73%; for `O=C(C1CCN(c2nnnn2-c2ccccc2)CC1)N1CCc2ccccc2C1`, 10.05%. For `COc1cc(C2=NCCN2)ccc1-c1cn(-c2cccc(C3=NCCN3)c2)nn1` the value was 20.94%; for `COc1cccc(NC(=O)c2c(NC(=O)c3cccnc3)sc3c2CCC3)c1`, 4.86%; for `CCOc1ccc(-c2nc(NC(=O)CS(=O)(=O)c3ccccc3)sc2C)cc1`, 8.92%. Turning to `COc1ccc(-c2onc(C(F)(F)F)c2-c2ccc(Cl)cc2)c(O)c1`, the Inhibition came out at 17.62%. On to `NCCC(O)C(=O)N[C@@H]1C[C@H](N)[C@@H](OC2O[C@H](CN)[C@@H](O)[C@H](O)[C@H]2O)[C@H](O)C1OC1O[C@H](CO)[C@@H](O)[C@H](N)[C@H]1O.O=S(=O)(O)O.O=S(=O)(O)O` (some centres undefined), for which the Inhibition is 14.8%. In the case of `CC(Oc1cccc(Cl)c1)C(=O)Nc1ccc2oc(-c3ccncc3)nc2c1` (centres undefined) it was 10.14%. `CCCc1ccc(S(=O)(=O)Nc2ccc(CN3CCN(CC4CC4)CC3)cc2)cc1`: the Inhibition worked out at 14.16%. For the compound `COc1ccc(-c2nc(-c3cccc(NC(=O)Cc4ccc(F)cc4)c3)no2)cc1OC`, the Inhibition is listed as 9.97%.

Consider `Cc1cc(NCC(C)C)c2[nH]nc(-c3ccccc3)c2n1`, for which the Inhibition was found to be 14.96%. Turning to `CNC(=O)C1Cc2c([nH]c3cc(Cl)ccc23)C2(CCN(CCc3ccccc3)CC2)N1` (centres undefined), the Inhibition was determined as 10.67%. In the case of `O=C(Nc1cccc(-c2ccc(NCCCN3CCCC3)nc2)c1)c1ccccc1` it was 7.76%. Regarding `CCn1cnc2c(Nc3cc(F)cc(F)c3)nc(C#N)nc21`, the Inhibition is reported as 11.19%. Turning to `CCOc1ccccc1NC(C)C(=O)Nc1cc(C(F)(F)F)ccc1N1CCOCC1` (centres undefined), the Inhibition was determined as 9.09%. As to `CCOc1ccc(-c2nc(CNCCc3ccc(F)cc3)cs2)cc1`, the Inhibition turned out to be 16.88%. For `Cc1ccc2cc(C3NC(=O)c4ccccc4N3)c(Cl)nc2c1` (centres undefined) the value was 15.71%. For `CC(=O)O.CC(=O)O.Nc1ncnc2c1ncn2[C@@H]1O[C@H](COS(=O)(=O)NC(=O)c2ccccc2O)[C@@H](O)[C@H]1O`, the Inhibition amounted to 9.27%. For `Cc1cc(O)nc(-n2nc(C)cc2C)n1` the value was 22.1%. On to `Cc1nc(-c2cccc(NCc3ccccc3)c2)[nH]c1C`, for which the Inhibition turned out to be 19.16%.

Take `CC(C)=CCC/C(C)=C\CNCCNC1C2CC3CC(C2)CC1C3` (centres undefined): the Inhibition is recorded as 27.33%.

As to `Cl.c1ccc(C[C@@H]2CN(c3nccc(Oc4ccc(-n5ccnc5)cc4)n3)CCN2)cc1`, the Inhibition is on record as 9.03%. For `N#Cc1ccc(-c2ccc(OCC(N)=O)cc2)cc1` the value was 3.34%; for `CC(C)(C)c1ccc(N[C@@H]2CCCC[C@H]2NC(=O)c2ccco2)cc1`, 0.79%; for `CCOC(=O)c1c(NC(=O)c2c(F)c(F)c(F)c(F)c2F)sc(C(N)=O)c1C`, 19.78%. In the case of `Clc1ccc(CN2CCN(C3=NCCN3)CC2)cc1Cl`, the Inhibition amounted to 6.25%. For `NC(=O)c1cc(-c2ccsc2)ccc1OCCOc1ccccc1` the value was 15.94%. On to `COc1ccc(C2CC(c3cccs3)=NN2C(=O)c2ccco2)cc1OC` (centres undefined), for which the Inhibition was 16.11%.

For the compound `CNC(=O)C1Cc2ccccc2N1C(=O)Cc1ccc(F)cc1` (centres undefined), the Inhibition is on record as 4.48%. In the case of `Nc1nccc2ccc(-c3ccc4nccn4c3)cc12` it was 30.48%; in that of `CC(C)(C)n1nc(-c2ccccc2)c2c(N)ncnc21`, 1.86%. For `CS(=O)(=O)N1CCC(CCn2nc(Cc3cccc4ccccc34)c3c(N)ncnc32)CC1` the value was 1.77%; for `O=C(CN1CCOCC1)Nc1ccc2ncnc(Nc3ccc(OCc4cccc(F)c4)c(Cl)c3)c2c1`, 8.7%; for `COC(=O)C1=C(C)NC(C)=C(C(=O)OC(C)C)C1c1cccc2nonc12` (centres undefined) [ISRADIPINE], 2.23%. Regarding `CC(=O)N(CCN(C(=O)c1ccc(F)cc1)c1ccccc1)c1ccccc1`, the Inhibition came to 7.38%.

On to `CC(C)(C)OC(=O)N1CCN(c2cc(-c3ccc(Oc4ccccc4)cc3)n[nH]2)CC1`, for which the Inhibition is recorded as 20.5%. For `COc1ccc(-c2nn(C(C)C)c3ncnc(N)c23)cc1OC` the value was 9.3%; for `Cc1nn(C)cc1C(C)Nc1nncc(-c2ccc(C(F)(F)F)cc2)n1` (centres undefined), -4.15%; for `CC(C)(C)C(=O)N(CCCCCCN1C[C@H](O)[C@@H](O)[C@H](O)[C@H]1CO)C1CCCCCC1`, -1.24%. With `O=C(C1CCN(c2cc(-n3cccc3)ncn2)CC1)N1CCc2ccccc2C1`, the Inhibition is 5.31%.

`COc1cccn2c(C(=O)N3CCCCC3)c(C(F)(F)F)nc12`: the Inhibition stood at 8.62%.

As for `CCOc1ccc2cc(-c3nn(CC4CCN(C)CC4)c4ncnc(N)c34)ccc2c1.Cl`, the Inhibition amounted to 9.74%.

As for `COc1ccccc1C(C)NCC(=O)Nc1cc(C(F)(F)F)ccc1Cl` (centres undefined), the Inhibition is on record as 9.87%. Consider `c1ccc(Oc2ccc(-c3cc(N4CCOCC4)[nH]n3)cc2)cc1`, for which the Inhibition was 7.11%. As to `CCOC(=O)c1noc(N)c1-c1ccccc1`, the Inhibition was found to be 18.52%. With `Nc1cccnc1Nc1ccc(Cl)cc1`, the Inhibition is reported as -2.6%. In the case of `COc1ccc(Oc2ccc([C@@H](C)N(C)c3ncc4c(N)nc(N)nc4n3)cc2)cc1` it was 20.64%; in that of `Cc1cccc(Cn2ccc(NC(=O)c3ccc4c(c3)OCO4)n2)c1`, 12.98%; in that of `COc1ccc(C(=N)N)cc1-c1cn(-c2ccc(C(=N)N)cc2)nn1.Cl.Cl`, 5.57%. For the compound `Nc1ncc(-c2cn[nH]c2)cc1-c1nc2cc(Cl)cnc2[nH]1`, the Inhibition was found to be 0.43%. As to `COc1ccc(Nc2ccccc2NC(=O)c2ccc(O)nc2)cc1`, the Inhibition was -7.97%. Regarding `O=C(NCc1nnc2n1CCCCC2)c1ccc(-c2ccc(F)cc2)o1`, the Inhibition was found to be 9.27%. For `COc1cc(CN2CCC3(C=Cc4ccccc43)CC2)cc2c1OCO2` the value was -4.35%; for `CC(C)n1nc(-c2cc3c(Cl)cccc3[nH]2)c2c(N)ncnc21`, 1.75%.
